PubChem BioAssay AID504834 (National Center for Advancing Translational Sciences (NCATS), 2011)
About 22,000 (6.9%) of roughly 320,000 compounds were called active. This list was built around the results that the source calls inconclusive (neither active nor inactive); the mix of calls is not that of the screen. Calls come from the whole dose curve; as a rule, active = well fitted inhibition curve with a large enough effect; inconclusive = small, poorly fitted or top-dose-only effect, or another doubt; inactive = no such curve, though single readings can be large or run the other way. Potencies of inconclusive entries are doubtful fits and often do not repeat.

Assay: Primary qHTS for delayed death inhibitors of the malarial parasite plastid, 96 hour incubation
Settings: P. falciparum luciferase reporter growth; series mostly up to 28.7 µM
How it was run: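 Compounds incubated with erythrocytes infected by luciferase-expressing P. falciparum (2% hematocrit, 0.05% parasitemia final) for 96 hours, 37 C in 5% CO2. Growth inhibition scored as decreased luciferase luminescence.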
Potency is the fitted concentration of half-maximal effect.

Row | SMILES | Potency
1 | COC(=O)Cn1cnc2c(nnn2Cc2ccc(Cl)cc2)c1=O | inconclusive: 1.17 µM [inhibitor, partial curve, poor fit]
2 | CCOC(=O)C1=C(C)N=c2s/c(=C\c3ccc(OCC(=O)O)cc3)c(=O)n2C1c1ccc(OC(C)C)cc1 (stereo not drawn) | active: 0.415 µM
3 | C[C@@H](C(=O)O)c1ccc(C(=O)c2cccs2)cc1 | inactive
4 | N#CC1(NC(=O)CN2CCc3ccccc3C2)CCCC1 | inactive
5 | CC1CC(C)CN(S(=O)(=O)c2ccc(NC(=O)CCN3C(=O)C4CC=CCC4C3=O)cc2)C1 (stereo not drawn) | inconclusive: 9.28 µM [inhibitor, single point]
6 | Cc1ccccc1-c1cc(C(=O)NCc2ccc3c(c2)OCO3)n(CC2CC(c3cccnc3)=NO2)n1 (stereo not drawn) | active: 4.15 µM
7 | CCn1cc(C(=O)N2CC(C)CC(C)C2)c(=O)c2cc(S(=O)(=O)N(C)C)ccc21 (stereo not drawn) | inactive
8 | COc1ccc(-c2cccc(C(=O)Nc3ccc(C)cc3)c2)cc1 | inactive
9 | COc1ccc2oc(C(=O)NCc3ccccc3CN3CCCC3)c(C)c2c1 | inconclusive: 11.7 µM [inhibitor, single point]
10 | Cc1cccc(Nc2nnc(SC(C)C(=O)NC3CC3)s2)c1 (stereo not drawn) | active: 10.4 µM
11 | COc1cccc(C(=O)OCC(=O)N2CCc3ccccc32)c1OC | inactive
12 | CC(=O)Nc1ccc(NC(=O)c2ccccc2N(Cc2ccccc2)S(C)(=O)=O)cc1 | inconclusive: 18.5 µM [inhibitor, single point]
13 | COc1ccc(NC(=O)c2cc(N3C(=O)C4C5CCC(C5)C4C3=O)ccc2Cl)c(OC)c1 (stereo not drawn) | inconclusive: 4.65 µM [inhibitor, partial curve, poor fit]
14 | O=C(NC1C(=O)NNC1c1ccccc1)c1ccc(F)cc1 (stereo not drawn) | inactive
15 | O=C(O)c1ccc(COc2ccccc2/C=C2/NC(=O)N(c3cccc(Cl)c3)C2=O)cc1 | inconclusive: 8.28 µM [inhibitor, single point]
16 | CCCN1CCC(NC(=O)CCc2nnc(-c3ccccc3)o2)CC1 | inconclusive: 11.7 µM [inhibitor, single point]
17 | Cc1cc(C(=O)COc2ccccc2[N+](=O)[O-])c(C)n1-c1cccc(S(=O)(=O)N2CCOCC2)c1 | inconclusive: 14.7 µM [inhibitor, single point]
18 | CCn1cc(C(=O)N2CC(C)CC(C)C2)c(=O)c2cc(S(=O)(=O)N3CCOCC3)ccc21 (stereo not drawn) | inconclusive: 11.7 µM [inhibitor, single point]
19 | COc1ccc([C@H]2CC(=O)C=C(c3ccccc3Oc3ccccc3)C2)cc1 | inconclusive: 13.1 µM [inhibitor, partial curve, poor fit]
20 | COc1ccc(CCNc2ccc(S(=O)(=O)N3CCCC3)cc2[N+](=O)[O-])cc1 | inconclusive: 13.1 µM [inhibitor, single point]
21 | COc1ccc(OC)c(C2C(C#N)=C(N)Oc3c2c(C)nn3-c2cccc(Cl)c2)c1 (stereo not drawn) | inconclusive: 2.94 µM [inhibitor, partial curve]
22 | Cc1cc(-n2c(C)cc(C(=O)COC(=O)CN=C3NS(=O)(=O)c4ccccc43)c2C)no1 | inconclusive: 11.7 µM [inhibitor, partial curve, poor fit]

Row | SMILES | Potency
23 | Cc1nnc(SCCn2c(N3CCN(Cc4ccccc4)CC3)nc3c2c(=O)[nH]c(=O)n3C)s1 | active: 7.38 µM
24 | CCC(C)C(NC(=O)c1ccccc1NC(=O)c1ccco1)C(=O)O (stereo not drawn) | inconclusive: 11.7 µM [inhibitor, partial curve, poor fit]
25 | CCCCN1C(=O)C(=O)N(CC(=O)c2cc(C)n(-c3cc(C)on3)c2C)C1=O | inconclusive: 18.5 µM [inhibitor, single point]
26 | CCN1CCCC1CNC(=S)Nc1ccc(C(C)=O)cc1 (stereo not drawn) | inactive
27 | CCC(CO)NCc1ccc(OC2CCCC2)cc1 (stereo not drawn) | inactive
28 | COc1ccc(CC(CC(=O)O)C(=O)Nc2ccc(OC)cc2)cc1 (stereo not drawn) | inconclusive: 18.5 µM [inhibitor, single point]
29 | O=C(NCCc1ccccc1)c1ccc(NC2=NC3CS(=O)(=O)CC3S2)cc1 (stereo not drawn) | inconclusive: 9.28 µM [inhibitor, single point]
30 | O=C(Nn1c(-c2ccc(Cl)cc2)nc2ccccc2c1=O)c1cccnc1Cl | inconclusive: 18.5 µM [inhibitor, single point]
31 | CCN(CC)CCn1c(=N)n(CCOc2ccccc2)c2ccccc21 | active: 8.28 µM
32 | Cc1cc(C)c2nc(NC(=O)C3CSC4(C)CCC(=O)N34)sc2c1 (stereo not drawn) | inactive
33 | Cc1ccc(N(CC(=O)N2CCc3ccccc32)S(=O)(=O)c2cccs2)cc1 | inconclusive: 18.5 µM [inhibitor, single point]
34 | Cc1c(Br)c([N+](=O)[O-])nn1CC(=O)NCc1ccco1 | inconclusive: 1.85 µM [inhibitor, full curve]
35 | CC1CC(C)CN(CCCNC(=O)c2csc3c2CCCCC3)C1 (stereo not drawn) | inconclusive: 14.7 µM [inhibitor, single point]
36 | Cc1ccc(C(=O)N(CN2CCCC2=O)c2ccc(F)cc2)cc1C | inconclusive: 18.5 µM [inhibitor, single point]
37 | CN(c1ccc(OCC(=O)NCc2cccnc2)cc1)S(=O)(=O)c1ccc(Cl)cc1 | inactive
38 | Cc1cccc(/C=C2\Sc3ccc(C(=O)NCC4CCCO4)cc3N(C)C2=O)c1 (stereo not drawn) | inconclusive: 10.4 µM [inhibitor, single point]
39 | CC(C)Cn1c(=O)[nH]c(=O)c2c(C(F)(F)F)cc(-c3ccccc3)nc21 | active: 8.28 µM
40 | O=C(CN(C(=O)CSc1nc2ccccc2o1)c1cccc(F)c1)NC1CCCCC1 | inconclusive: 0.738 µM [inhibitor, partial curve]
41 | CNc1snc(C)c1C(=O)OC(C)C(=O)Nc1cccc(OC)c1 (stereo not drawn) | inconclusive: 18.5 µM [inhibitor, single point]
42 | O=C(N/N=C/c1cc(Cl)cc([N+](=O)[O-])c1O)c1ccc2c(c1)OCO2 | inactive
43 | Cc1cc(-c2ccccc2)nc(N/N=C/c2ccc(O)cc2)n1 | inconclusive: 18.5 µM [inhibitor, single point]

Structural class, the entries above containing a cyano group.
Row | SMILES | Potency
4 | N#CC1(NC(=O)CN2CCc3ccccc3C2)CCCC1 | inactive
21 | COc1ccc(OC)c(C2C(C#N)=C(N)Oc3c2c(C)nn3-c2cccc(Cl)c2)c1 (stereo not drawn) | inconclusive: 2.94 µM [inhibitor, partial curve]
